“And” between values parts separate entries of the source, which are not always exact repeats. Equal entries are not always repeated. Screen size: about 310,000 compounds; about 17,000 (5.5%) were called active. The inconclusive results got no clear call from the source; some entries with a clear call stand among them for comparison. Calls come from the whole dose curve; as a rule, active = well fitted inhibition curve with a large enough effect; inconclusive = small, poorly fitted or top-dose-only effect, or effect the other way; inactive = no such curve, though single readings can be large or run the other way. A potency beside an inconclusive call is a rough fit, not a confirmed value.
molecular target: Nuclear receptor ROR-gamma (Mus musculus) (UniProt P51450); assay: qHTS for inhibitors of ROR gamma transcriptional activity; settings: Drosophila S2 Gal4-RORgamma UAS-luciferase reporter, 20 h; series mostly up to 53.6 µM; note: nearly all actives have a fitted effect of over 60% in size
Procedure, shortened: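 Schneider cells (Drosophila), stable Gal4 DBD–ROR gamma + UAS-luc; 1 hr cmpd preincubation; Cu2+ induction 700 uM final; 20 hr ambient; luminescence.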
Potency is the fitted concentration of half-maximal effect.

By UniProt entry, the sequences of proteins in these tests, tags left out. Where a name states a change or a piece, a line headed by the entry shows the natural chain unless it says otherwise.
UniProt P51450: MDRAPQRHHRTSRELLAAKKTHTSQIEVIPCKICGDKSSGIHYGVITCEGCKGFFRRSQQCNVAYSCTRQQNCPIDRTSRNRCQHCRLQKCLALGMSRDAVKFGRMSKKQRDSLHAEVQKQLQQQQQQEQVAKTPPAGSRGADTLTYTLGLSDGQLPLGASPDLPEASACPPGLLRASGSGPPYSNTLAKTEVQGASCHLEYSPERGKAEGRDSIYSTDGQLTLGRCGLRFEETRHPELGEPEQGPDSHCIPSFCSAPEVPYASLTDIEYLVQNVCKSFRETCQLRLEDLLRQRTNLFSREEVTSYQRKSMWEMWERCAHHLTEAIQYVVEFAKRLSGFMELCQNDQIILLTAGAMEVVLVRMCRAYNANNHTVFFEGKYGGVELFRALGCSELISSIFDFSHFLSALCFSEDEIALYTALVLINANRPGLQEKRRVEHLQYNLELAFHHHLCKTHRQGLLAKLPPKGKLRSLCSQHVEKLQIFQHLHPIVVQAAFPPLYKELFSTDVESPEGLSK

Potency, inactive:
COc1ncc2nc(C)c(=O)n(CCc3ccccc3)c2n1
COC(=O)N/N=C\c1ccc(OC/C=C/c2ccccc2)c(OC)c1
NCCSc1c(-c2ccc(Cl)cc2)[nH]c2ccccc12
Cc1ccccc1OCC(=O)Nc1c2c(nn1C(C)(C)C)CS(=O)(=O)C2
Cc1cccc(NC(=O)c2cnccn2)c1
O=C(O)Cn1nc(-c2ccccc2)oc1=O
CCCCc1cc(=O)oc2cc(C)cc(OCC(=O)Nc3ccccn3)c12
O=C(NCC1CCCCC1)c1nnc(C(=O)NCC2CCCCC2)c2c1[nH]c1ccccc12
Cc1ccc(-n2ncc3c2CC(C)(C)CC3NC(=O)c2ccccn2)cc1 (stereo not drawn)
COc1ccc(-n2nc(C(=O)NCC(=O)N3CCCC(C)C3)c3ccccc3c2=O)cc1 (stereo not drawn)
COc1ccc(C(=O)C2CCCN(C(=O)c3cccc(N4CCCC4=O)c3)C2)cc1OC (stereo not drawn)
CCOc1ccccc1NS(=O)(=O)c1cc2c3c(c1)C(C)C(=O)N3CCC2 (stereo not drawn)
CC1CCc2c(sc(N)c2C(=O)OC(C)C)C1 (stereo not drawn)
CNCCCCc1cnc(C)c2[nH]c3ccccc3c12
CNc1nc(SCC(=O)Nc2ccc(Cl)c(Cl)c2)nc(N2CCOCC2)n1
COC(C(=O)Nc1cccc([N+](=O)[O-])c1)c1ccccc1 (stereo not drawn)
Cc1nnc2n1N=C(c1ccc(OC(F)F)cc1)C(C)S2 (stereo not drawn)
COc1cc2c(cc1OC)C(C)N(C(=O)c1ccc(Br)o1)CC2 (stereo not drawn)

4 compounds already listed, arranged by SMILES length, low to high:
Potency, inactive:
O=C(O)Cn1nc(-c2ccccc2)oc1=O
CNCCCCc1cnc(C)c2[nH]c3ccccc3c12
Cc1nnc2n1N=C(c1ccc(OC(F)F)cc1)C(C)S2 (stereo not drawn)
O=C(NCC1CCCCC1)c1nnc(C(=O)NCC2CCCCC2)c2c1[nH]c1ccccc12

In the list so far, 2 contain an aryl thioether with sulfur outside any ring.
Potency, inactive:
NCCSc1c(-c2ccc(Cl)cc2)[nH]c2ccccc12
CNc1nc(SCC(=O)Nc2ccc(Cl)c(Cl)c2)nc(N2CCOCC2)n1

Following part.

Potency, inconclusive:
CCOc1ccc(NS(=O)(=O)c2ccc3c(c2)N(C(C)=O)CC3)cc1 3.98 µM [activator, single point]
COc1ccc(CCNC(=O)C/C(C)=N/NC(=O)C23CC4CC(CC(C4)C2)C3)cc1OC 20 µM [inhibitor, single point]
Cc1ccc(NNC(=O)C2CCC2)cc1C 14.1 µM [inhibitor, single point]
COc1cccc(/C=N/NC(=O)c2ccc(=O)[nH]n2)c1O 10 µM [inhibitor, partial curve]
CN(c1ccc(C(=O)NCc2ccncc2)cc1)S(=O)(=O)c1ccc(Cl)cc1 11.2 µM [inhibitor, partial curve]
Cc1cc(C)cc(Oc2ccccc2/C=N\O)c1 22.4 µM [inhibitor, partial curve, poor fit]
Cc1ccccc1-c1nn(-c2ccc(F)cc2F)cc1CNCCN(C)C 20 µM [inhibitor, partial curve, poor fit]
CCn1nnnc1SCC(=O)Nc1ccc2c(c1)OCCO2 35.5 µM [inhibitor, partial curve, poor fit]
Cc1sc2nc(C3CC3)nc(NCCNS(=O)(=O)c3ccccc3)c2c1C 12.6 µM [activator, partial curve]
COC(=O)C1=CN(Cc2ccc(OC)c(OC)c2)C=C(C(=O)OC)C1c1ccccc1F 12.6 µM [activator, single point]
Cc1noc(/C=C/N(C)C)c1S(=O)(=O)N1CCCC(C(=O)NC(C)c2ccccc2)C1 (stereo not drawn) 2.24 µM [activator, full curve]
COc1ccc(Nc2nc(N3CCN(S(=O)(=O)N(C)C)CC3)nc3ccccc23)cc1 0.447 µM [activator, full curve]
COc1cccc(Cn2cccc(NC(=O)Nc3cccc(C#N)c3)c2=O)c1 12.6 µM [activator, partial curve]
CCC(C)(C)n1nnnc1C(c1ccc(OC)c(OC)c1)N1CCN(c2ccc(OC)cc2)CC1 (stereo not drawn) 5.62 µM [inhibitor, single point]
COc1ccc(C)cc1NC(=O)C1CCN(S(=O)(=O)c2cccc3nonc23)CC1 5.62 µM [activator, single point]
CCN1C(=O)C(Cc2nc3ccccc3c(=O)n2-c2ccccc2)c2ccccc21 (stereo not drawn) 20 µM [activator, partial curve]
CCOc1ccc(C(=O)NC(=S)NCc2cccnc2)cc1 35.5 µM [inhibitor, single point]
Cc1ccccc1OCCNc1cc(N2CC(C)NC(C)C2)ccc1[N+](=O)[O-] (stereo not drawn) 35.5 µM [inhibitor, single point]
COc1cc(/C=C2\SC(=O)N(CCN)C2=O)ccc1OS(=O)(=O)c1cc(C)ccc1C 35.5 µM [inhibitor, single point]
O=C1NC(=O)C(c2ccccc2)(c2ccccc2)N1 6.31 µM [activator, single point] and 35.5 µM [activator, single point]
O=C(CCCN1C(=O)/C(=C/c2cccs2)SC1=S)Nc1ccc(C(=O)O)cc1 35.5 µM [inhibitor, single point]
CCN(CC)CCC(c1ccc2c(c1)OCO2)c1c(OC)cc(OC)c2c(-c3ccccc3)cc(=O)oc12 (stereo not drawn) 22.4 µM [inhibitor, single point]
COc1ccccc1N(CC(O)COc1ccccc1C)S(=O)(=O)c1ccccc1 (stereo not drawn) 22.4 µM [activator, single point]
CC(NC(=O)/C=C/c1ccco1)c1nc2ccccc2n1Cc1cccc(Cl)c1 (stereo not drawn) 35.5 µM [inhibitor, single point]
COc1ccc(C(=O)CC(=O)C(=O)Nc2ccc(C)c(Cl)c2)cc1 11.2 µM [inhibitor, single point]
COc1ccc(NC(=O)CC2C(=O)N(Cc3cccs3)C(=S)N2C(C)C)cc1 (stereo not drawn) 12.6 µM [activator, partial curve]
CC(=O)N1CCC2(CCCN(Cc3ccccc3)C2)CC1 35.5 µM [inhibitor, single point]
Cc1ccc(-n2nc(-c3cccs3)cc2C(=O)NCC2CCCO2)c(C)c1 (stereo not drawn) 22.4 µM [inhibitor, single point]
O=C(COc1ccccc1)NCC(=O)N/N=C/c1cc(Br)ccc1OCc1ccccc1 3.16 µM [activator, full curve]
O=C(CC(n1cncn1)C(Cl)(Cl)Cl)c1ccc([N+](=O)[O-])cc1 (stereo not drawn) 17.8 µM [inhibitor, single point]
Cc1c(C(=O)Nc2c(C)n(C)n(-c3ccccc3)c2=O)oc2ccccc12 0.794 µM [inhibitor, full curve, poor fit]
COCc1nc2ccccc2n1CCOc1ccccc1OC 11.2 µM [inhibitor, partial curve]
CN1C(=S)N(c2cccnc2)C(=O)/C1=C\c1ccc(C(C)(C)C)cc1 6.31 µM [activator, single point]
COc1ccc(N2CCN(C(=O)CCc3ccc(S(=O)(=O)NCC(C)C)cc3)CC2)cc1 14.1 µM [activator, partial curve]
O=C(O)CCc1ccc(-c2ccccc2)o1 35.5 µM [inhibitor, single point]
Cc1c(Cl)cccc1NC(=S)NCC(O)c1ccccc1 (stereo not drawn) 17.8 µM [inhibitor, single point]
CCc1c(C)nc2ncnn2c1N1CCCC(C(=O)NCCc2ccccc2)C1 (stereo not drawn) 14.1 µM [activator, single point]
COCCNC(=O)Cn1cnc([N+](=O)[O-])n1 35.5 µM [inhibitor, single point]
CCOP(=O)(c1ccccc1)c1nc(-c2ccccc2Cl)oc1N1CCCCC1 (stereo not drawn) 15.8 µM [inhibitor, single point]
CCOc1cccc(NC(=O)C2CC(=O)N(C)C(=Nc3cccc(F)c3)S2)c1 (stereo not drawn) 17.8 µM [activator, single point]

Potency, active:
Cc1cccc(Nc2nc(-c3ccccc3)cs2)n1 3.16 µM
CCOC(=O)C1CCCN(S(=O)(=O)c2ccc(S(=O)(=O)N(CC)CC)cc2)C1 (stereo not drawn) 6.31 µM
S=C(Nc1ccccc1)c1ccccn1 1.41 µM and 631 nM
O=C(NNc1nc2cc3c(cc2s1)OCO3)c1ccc(F)cc1 1.26 µM
O=C(NC(NNc1ccc([N+](=O)[O-])cc1)(C(F)(F)F)C(F)(F)F)c1ccc(Cl)cc1 15.8 µM
Cn1cccc1/C=C1\SC(=Nc2cccc(O)c2)NC1=O 3.16 µM
Cc1cc(C)c(S(C)(=O)=O)c(NN)n1 2 µM
CCOC(=O)C1=C(NC(=S)NC(=O)c2ccccc2)c2ccccc2CC1(C)CC (stereo not drawn) 6.31 µM
COc1ccc(NC(=S)N2CCCN(Cc3cccc(Cl)c3)C2)cc1 12.6 µM
Cc1ccc(SCCC(=O)NCc2ccccn2)cc1 8.91 µM
COc1cc(/C(O)=C(\C#N)c2nc3ccccc3[nH]2)cc(OC)c1OC 11.2 µM
Cc1ccc2cccc(NC(=S)NC(=O)c3ccccc3)c2n1 1.78 µM
CCOC(=O)c1sc2nc(-c3ccccc3)ccc2c1N 2.51 µM
CCOc1ccc(NC(=S)NCCCc2ccccc2)cc1 5.01 µM
CC(C)CCn1c(=O)c2ccccc2n2c(=S)[nH]nc12 3.98 µM
